Here are results for 1 substance from article PMC8291974.

Sequences of proteins named here, by UniProt entry; tags and fusion partners are left off.
UniProt E9Q777: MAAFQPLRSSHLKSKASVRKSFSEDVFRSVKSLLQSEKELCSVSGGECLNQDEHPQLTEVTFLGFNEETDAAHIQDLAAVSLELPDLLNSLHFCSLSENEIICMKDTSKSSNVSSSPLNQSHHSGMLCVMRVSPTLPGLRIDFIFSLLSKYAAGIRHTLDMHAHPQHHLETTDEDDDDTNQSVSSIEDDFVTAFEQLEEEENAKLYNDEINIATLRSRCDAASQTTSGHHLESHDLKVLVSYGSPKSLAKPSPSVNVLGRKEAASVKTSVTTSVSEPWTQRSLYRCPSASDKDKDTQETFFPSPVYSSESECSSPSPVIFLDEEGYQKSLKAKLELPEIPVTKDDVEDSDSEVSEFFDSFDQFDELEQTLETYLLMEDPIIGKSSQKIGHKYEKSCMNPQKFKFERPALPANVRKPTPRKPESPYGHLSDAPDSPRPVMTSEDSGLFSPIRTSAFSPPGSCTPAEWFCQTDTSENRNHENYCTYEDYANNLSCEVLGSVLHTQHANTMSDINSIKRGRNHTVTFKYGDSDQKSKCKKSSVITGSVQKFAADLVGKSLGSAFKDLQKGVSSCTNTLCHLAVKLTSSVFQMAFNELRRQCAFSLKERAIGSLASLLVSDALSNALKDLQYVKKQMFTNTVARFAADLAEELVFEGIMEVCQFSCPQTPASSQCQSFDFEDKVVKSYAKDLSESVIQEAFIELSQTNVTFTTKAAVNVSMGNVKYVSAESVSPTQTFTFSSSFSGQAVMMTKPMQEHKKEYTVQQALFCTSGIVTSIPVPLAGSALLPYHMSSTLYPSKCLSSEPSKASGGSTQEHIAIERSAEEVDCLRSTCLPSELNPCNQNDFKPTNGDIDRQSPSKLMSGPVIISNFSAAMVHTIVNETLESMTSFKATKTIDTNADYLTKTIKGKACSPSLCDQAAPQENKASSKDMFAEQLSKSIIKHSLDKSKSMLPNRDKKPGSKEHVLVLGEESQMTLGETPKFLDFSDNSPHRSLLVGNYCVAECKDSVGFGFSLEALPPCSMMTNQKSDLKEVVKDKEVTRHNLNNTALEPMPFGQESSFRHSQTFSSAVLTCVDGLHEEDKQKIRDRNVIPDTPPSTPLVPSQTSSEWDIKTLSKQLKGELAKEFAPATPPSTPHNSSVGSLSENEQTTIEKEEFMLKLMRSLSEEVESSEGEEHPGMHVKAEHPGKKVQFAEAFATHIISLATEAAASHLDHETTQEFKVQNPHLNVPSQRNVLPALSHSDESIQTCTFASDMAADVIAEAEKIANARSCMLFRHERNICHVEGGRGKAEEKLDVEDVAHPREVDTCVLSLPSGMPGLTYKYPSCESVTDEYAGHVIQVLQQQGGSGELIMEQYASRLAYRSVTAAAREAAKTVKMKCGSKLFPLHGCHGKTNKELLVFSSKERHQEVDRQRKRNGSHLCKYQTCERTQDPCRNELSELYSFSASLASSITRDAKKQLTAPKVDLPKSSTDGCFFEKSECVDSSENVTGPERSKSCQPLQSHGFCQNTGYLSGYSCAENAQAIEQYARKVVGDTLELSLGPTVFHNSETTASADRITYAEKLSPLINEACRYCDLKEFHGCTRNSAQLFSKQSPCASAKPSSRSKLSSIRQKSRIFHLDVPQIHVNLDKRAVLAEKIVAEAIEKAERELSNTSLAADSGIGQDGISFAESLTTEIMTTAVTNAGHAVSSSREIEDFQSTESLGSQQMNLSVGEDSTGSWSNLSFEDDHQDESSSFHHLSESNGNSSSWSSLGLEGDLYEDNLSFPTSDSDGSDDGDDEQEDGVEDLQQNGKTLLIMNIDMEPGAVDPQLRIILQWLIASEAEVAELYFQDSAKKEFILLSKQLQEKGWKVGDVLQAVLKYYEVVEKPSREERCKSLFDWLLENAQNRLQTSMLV

The assay concerns the target T1, histone deacetylase 6 (HDAC6), endogenous in mIMCD3 cells (mouse (endogenous in mIMCD3)) (UniProt Q9Z2V5).
T1 sequence: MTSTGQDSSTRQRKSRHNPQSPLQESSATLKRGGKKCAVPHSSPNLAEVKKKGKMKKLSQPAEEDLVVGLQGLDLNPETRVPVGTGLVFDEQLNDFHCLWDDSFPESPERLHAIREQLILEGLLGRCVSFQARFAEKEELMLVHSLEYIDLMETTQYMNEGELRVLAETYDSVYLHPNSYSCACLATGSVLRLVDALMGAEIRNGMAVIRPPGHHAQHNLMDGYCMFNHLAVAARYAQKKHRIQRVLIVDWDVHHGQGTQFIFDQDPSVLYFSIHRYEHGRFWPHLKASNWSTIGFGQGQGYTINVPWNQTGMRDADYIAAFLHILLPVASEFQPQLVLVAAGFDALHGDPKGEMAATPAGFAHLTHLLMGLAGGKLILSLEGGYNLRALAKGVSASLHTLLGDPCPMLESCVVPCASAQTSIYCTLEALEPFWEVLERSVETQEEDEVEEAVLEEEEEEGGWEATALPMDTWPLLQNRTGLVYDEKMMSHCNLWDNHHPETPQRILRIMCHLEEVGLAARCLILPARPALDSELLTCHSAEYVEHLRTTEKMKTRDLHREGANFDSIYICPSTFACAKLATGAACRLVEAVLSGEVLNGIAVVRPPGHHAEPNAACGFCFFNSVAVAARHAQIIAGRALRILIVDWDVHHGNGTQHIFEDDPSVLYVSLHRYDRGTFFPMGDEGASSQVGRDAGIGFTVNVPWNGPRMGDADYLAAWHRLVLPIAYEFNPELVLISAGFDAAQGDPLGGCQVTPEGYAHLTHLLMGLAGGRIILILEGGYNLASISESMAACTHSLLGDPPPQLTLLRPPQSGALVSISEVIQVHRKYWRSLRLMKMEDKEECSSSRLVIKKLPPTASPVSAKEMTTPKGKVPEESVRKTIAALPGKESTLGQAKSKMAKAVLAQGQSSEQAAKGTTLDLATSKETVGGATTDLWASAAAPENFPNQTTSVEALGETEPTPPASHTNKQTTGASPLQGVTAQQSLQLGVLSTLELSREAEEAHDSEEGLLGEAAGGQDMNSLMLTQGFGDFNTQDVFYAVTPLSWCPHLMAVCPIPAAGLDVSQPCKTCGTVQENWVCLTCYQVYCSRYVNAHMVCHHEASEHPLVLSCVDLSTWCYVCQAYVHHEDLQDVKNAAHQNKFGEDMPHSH
Kind of assay: co-IP; immunoprecipitation of HDAC6 from wild-type or AKAP220-ΔPP1 mIMCD3 cell lysates, immunoblot for AKAP220.

No constants are given. Whether binding was seen depends on the method and setting. In cells and extracts the contact can be indirect. Some entries that bind do so weakly or less than the wild type. Sequences can lack the tags named with a protein.

As to “A-Kinase anchoring protein AKAP220 (wild type, endogenous in mIMCD3 cells) (from UniProt E9Q777 1-1894)”, the binding entry was “binds”.
